Source: the supplement of paper PMC4604168 (melanoma cell lines)
The list shows a part of the results. Repeats are few or missing, and single values can be far off.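 Cells were imaged in 1,536-well plates, and nuclei stained with an antibody against cleaved PARP were counted against all DNA-stained nuclei to give the apoptosis fraction. Screening doses were chosen to leave most cells alive, and resting and induced cleaved-PARP levels differ strongly between cell lines.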

Experiments:
Experiment in all cases: cleaved PARP positive nuclei fraction relative to DMSO control; melanoma cells; higher = more apoptosis
Settings in all cases: library dose: low library concentration; 72 h
CBRC034 = test system: CBRC034 (line from a melanoma biopsy)
COLO792 = test system: COLO792
COLO800 = test system: COLO800
COLO829 = test system: COLO829
G361 = test system: G361
IPC-298 = test system: IPC-298
IST-MEL1 = test system: IST-MEL1
LB2518-MEL = test system: LB2518-MEL
LOXIMVI = test system: LOXIMVI
MZ2-MEL = test system: MZ2-MEL
MeWo = test system: MeWo
RPMI7951 = test system: RPMI7951
RVH-421 = test system: RVH-421
SkMel28 = test system: SkMel28
SkMel30 = test system: SkMel30
SkMel5 = test system: SkMel5
UACC257 = test system: UACC257
UACC62 = test system: UACC62

Row | Compound | cleaved PARP positive nuclei fraction (CBRC034) [%] | cleaved PARP positive nuclei fraction (COLO792) [%] | cleaved PARP positive nuclei fraction (COLO800) [%] | cleaved PARP positive nuclei fraction (COLO829) [%] | cleaved PARP positive nuclei fraction (G361) [%] | cleaved PARP positive nuclei fraction (IPC-298) [%] | cleaved PARP positive nuclei fraction (IST-MEL1) [%] | cleaved PARP positive nuclei fraction (LB2518-MEL) [%] | cleaved PARP positive nuclei fraction (LOXIMVI) [%] | cleaved PARP positive nuclei fraction (MZ2-MEL) [%] | cleaved PARP positive nuclei fraction (MeWo) [%] | cleaved PARP positive nuclei fraction (RPMI7951) [%] | cleaved PARP positive nuclei fraction (RVH-421) [%] | cleaved PARP positive nuclei fraction (SkMel28) [%] | cleaved PARP positive nuclei fraction (SkMel30) [%] | cleaved PARP positive nuclei fraction (SkMel5) [%] | cleaved PARP positive nuclei fraction (UACC257) [%] | cleaved PARP positive nuclei fraction (UACC62) [%]
1 | COCC[n+]1c2c(n(Cc3cnccn3)c1C)C(=O)c1ccccc1C2=O + COc1ccc2c(c1)CCC1C2CCC2(C)C(NCCCCCCN3C(=O)C=CC3=O)CCC12 [U73122] (first compound 0.0004 µM, partner dose 0.4 µM) | 86.8 | 104 | 19.9 | 58.4 | 51.7 | 51.4 | 35.1 | 44.2 | 93.4 | 111 | 51.9 | 93.5 | 56.4 | 110 | 66.5 | 86.3 | 313 | 66.8
2 | C[C@]1(c2nc3c(C(N)=O)cccc3[nH]2)CCCN1 [Veliparib] + Oc1cc(-c2nc(-c3ccccc3)[nH]c2-c2ccncc2)ccc1Cl [L779450] (first compound 1.4 µM, partner dose 0.2 µM) | 1340 | 88.4 | 74.9 | 109 | 132 | 123 | 238 | 222 | 958 | 108 | 31.5 | 41 | 61.4 | 120 | 30.5 | 20.8 | 79.3 | 271
3 | CO[C@@H]1[C@H](N(C)C(=O)c2ccccc2)C[C@H]2O[C@]1(C)n1c3ccccc3c3c4c(c5c6ccccc6n2c5c31)C(=O)NC4 [Midostaurin] + CCc1ccc(CCOc2ccc(CC3SC(=O)NC3=O)cc2)nc1 [pioglitazone] (first compound 0.08 µM, partner dose 2 µM) | 48.9 | 94.4 | 72.2 | 220 | 135 | 38.5 | 32.4 | 81.7 | 46.1 | 149 | 56.1 | 64.7 | 93 | 80.9 | 77.1 | 29.4 | 68.9 | 39.3
4 | OCCn1cc(-c2cnc3nnn(Cc4ccc5ncccc5c4)c3n2)cn1 + CCCCCCCCCCCC1=C(O)C(=O)C=C(O)C1=O [Embelin] (first compound 1 µM, partner dose 1.2 µM) | 39.6 | 65.4 | 108 | 77.8 | 97.2 | 76.7 | 36.9 | 152 | 1330 | 131 | 116 | 43.7 | 46.4 | 127 | 55.1 | 83.8 | 140 | 30.8
5 | Cn1c(Nc2ccc(C(F)(F)F)cc2)nc2cc(Oc3ccnc(-c4ncc(C(F)(F)F)[nH]4)c3)ccc21 + O=C(O)C(=O)Nc1sc2c(c1C(=O)O)CCNC2 [TCS401] (first compound 0.08 µM, partner dose 1.66667 µM) | 99.8 | 237 | 200 | 89.2 | 234 | 226 | 192 | 295 | 197 | 224 | 142 | 68 | 110 | 178 | 32.3 | 80.8 | 1000 | 75.5
6 | COCC[n+]1c2c(n(Cc3cnccn3)c1C)C(=O)c1ccccc1C2=O + COc1ccc(COc2ccc(Cc3cnc(N)nc3N)cc2OC)cc1 [GW2580] (first compound 0.0004 µM, partner dose 1 µM) | 39 | 58.5 | 70.2 | 148 | 83 | 145 | 93 | 93.2 | 74.9 | 134 | 38.8 | 239 | 77.7 | 129 | 92.1 | 33.6 | 206 | 141
7 | NC(=O)Nc1cc(-c2cccc(F)c2)sc1C(=O)N[C@H]1CCCNC1 + Oc1cc(-c2nc(-c3ccccc3)[nH]c2-c2ccncc2)ccc1Cl [L779450] (first compound 0.02 µM, partner dose 0.2 µM) | 95.3 | 186 | 140 | 101 | 71.4 | 253 | 315 | 146 | 36.8 | 73.7 | 54.3 | 161 | 175 | 93.7 | 16 | 76.8 | 131 | 109
8 | Cn1cncc1[C@@](N)(c1ccc(Cl)cc1)c1ccc2c(c1)c(-c1cccc(Cl)c1)cc(=O)n2C [tipifarnib] + CCCCCCCCCCCC1=C(O)C(=O)C=C(O)C1=O [Embelin] (first compound 0.01 µM, partner dose 1.2 µM) | 91.8 | 81.2 | 79.4 | 177 | 76.1 | 78.5 | 68 | 314 | 63.7 | 50.2 | 47.5 | 21.4 | 124 | 86 | 49.9 | 106 | 124 | 96
9 | O=C(CCCCCCC(=O)Nc1ccccc1)NO [vorinostat] + O=C1NC(=O)/C(=C/c2ccc(-c3ccc(F)cc3O)o2)S1 [AS252424] (first compound 0.08 µM, partner dose 1 µM) | 92.8 | 60 | 128 | 103 | 106 | 170 | 88.1 | 94.3 | 97.5 | 54.7 | 163 | 180 | 78.5 | 149 | 51.4 | 144 | 252 | 180
10 | C=CCn1c(=O)c2cnc(Nc3ccc(N4CCN(C)CC4)cc3)nc2n1-c1cccc(C(C)(C)O)n1 + c1cc(-c2cnn3cc(-c4ccc(OCCN5CCCCC5)cc4)cnc23)ccn1 [Dorsomorphin] (first compound 0.02 µM, partner dose 0.4 µM) | 46.9 | 162 | 130 | 80.5 | 150 | 38.5 | 116 | 211 | 37.6 | 143 | 57.6 | 93.3 | 69.4 | 136 | 46.6 | 65 | 196 | 43.3
11 | C[C@]1(c2nc3c(C(N)=O)cccc3[nH]2)CCCN1 [Veliparib] + O=C(Nc1ccccc1)c1cc([N+](=O)[O-])ccc1Cl [GW9662] (first compound 1.4 µM, partner dose 2 µM) | 183 | 80.8 | 91.5 | 82.3 | 77.7 | 62.9 | 177 | 184 | 80.8 | 152 | 97.2 | 82.5 | 96.2 | 233 | 18.7 | 89.7 | 131 | 51.9
12 | OCCn1cc(-c2cnc3nnn(Cc4ccc5ncccc5c4)c3n2)cn1 + c1cc(-c2cnn3cc(-c4ccc(OCCN5CCCCC5)cc4)cnc23)ccn1 [Dorsomorphin] (first compound 1 µM, partner dose 0.4 µM) | 71.9 | 105 | 91 | 89.6 | 21.5 | 38.7 | 55.9 | 76.7 | 34.3 | 118 | 47.3 | 90.6 | 93.6 | 185 | 48.8 | 76.2 | 112 | 72.4
13 | Cn1c(Nc2ccc(C(F)(F)F)cc2)nc2cc(Oc3ccnc(-c4ncc(C(F)(F)F)[nH]4)c3)ccc21 + COc1cc(N2CCC(N3CCN(C)CC3)CC2)ccc1Nc1ncc(Cl)c(Nc2ccccc2S(=O)(=O)C(C)C)n1 [NVP-TAE684] (first compound 0.08 µM, partner dose 0.08 µM) | 124 | 423 | 107 | 146 | 158 | 70.6 | 46.6 | 276 | 84.5 | 54.2 | 140 | 213 | 177 | 142 | 102 | 39.1 | 462 | 151
14 | Cn1c(Nc2ccc(C(F)(F)F)cc2)nc2cc(Oc3ccnc(-c4ncc(C(F)(F)F)[nH]4)c3)ccc21 + O=C1NC(=O)/C(=C/c2ccc(-c3ccc(F)cc3O)o2)S1 [AS252424] (first compound 0.08 µM, partner dose 1 µM) | 160 | 280 | 157 | 107 | 177 | 69.4 | 119 | 324 | 191 | 180 | 94.3 | 143 | 184 | 315 | 69.7 | 168 | 1310 | 314
15 | Nc1cccc2c1CN(C1CCC(=O)NC1=O)C2=O (centres undefined) [lenalidomide] + COc1ccc2c(c1)CCC1C2CCC2(C)C(NCCCCCCN3C(=O)C=CC3=O)CCC12 [U73122] (first compound 1 µM, partner dose 0.4 µM) | 41.4 | 99.7 | 41.3 | 102 | 88.1 | 40.5 | 82.6 | 76.8 | 215 | 75.2 | 62.7 | 149 | 62.8 | 107 | 71 | 211 | 153 | 80.4
16 | CC(C)(C)c1cnc(CSc2cnc(NC(=O)C3CCNCC3)s2)o1 + Cn1cc(/C=C2\C(=O)Nc3cccnc32)c2ccccc21 [GW441756] (first compound 0.01 µM, partner dose 0.4 µM) | 44.7 | 112 | 65.1 | 115 | 160 | 79 | 176 | 80.5 | 144 | 105 | 48.1 | 246 | 177 | 149 | 26 | 65.3 | 161 | 79
17 | C=CCn1c(=O)c2cnc(Nc3ccc(N4CCN(C)CC4)cc3)nc2n1-c1cccc(C(C)(C)O)n1 + N#Cc1c(O)c2c(-c3ccc(-c4ccccc4O)cc3)csc2[nH]c1=O [A769662] (first compound 0.02 µM, partner dose 2 µM) | 116 | 158 | 97.5 | 100 | 121 | 68.5 | 174 | 95.7 | 70 | 135 | 34.1 | 178 | 84 | 186 | 188 | 66.1 | 99.4 | 160
18 | C[C@]1(c2nc3c(C(N)=O)cccc3[nH]2)CCCN1 [Veliparib] + COc1ccc(COc2ccc(Cc3cnc(N)nc3N)cc2OC)cc1 [GW2580] (first compound 1.4 µM, partner dose 1 µM) | 45.6 | 133 | 114 | 107 | 172 | 187 | 37.9 | 221 | 17.6 | 169 | 28.2 | 94.7 | 93.8 | 150 | 39.7 | 27.8 | 94 | 44.5

At a glance, some entries already given.
Row | Compound | cleaved PARP positive nuclei fraction (CBRC034) [%] | cleaved PARP positive nuclei fraction (COLO792) [%] | cleaved PARP positive nuclei fraction (COLO800) [%] | cleaved PARP positive nuclei fraction (COLO829) [%] | cleaved PARP positive nuclei fraction (G361) [%] | cleaved PARP positive nuclei fraction (IPC-298) [%] | cleaved PARP positive nuclei fraction (IST-MEL1) [%] | cleaved PARP positive nuclei fraction (LB2518-MEL) [%] | cleaved PARP positive nuclei fraction (LOXIMVI) [%] | cleaved PARP positive nuclei fraction (MZ2-MEL) [%] | cleaved PARP positive nuclei fraction (MeWo) [%] | cleaved PARP positive nuclei fraction (RPMI7951) [%] | cleaved PARP positive nuclei fraction (RVH-421) [%] | cleaved PARP positive nuclei fraction (SkMel28) [%] | cleaved PARP positive nuclei fraction (SkMel30) [%] | cleaved PARP positive nuclei fraction (SkMel5) [%] | cleaved PARP positive nuclei fraction (UACC257) [%] | cleaved PARP positive nuclei fraction (UACC62) [%]
14 | Cn1c(Nc2ccc(C(F)(F)F)cc2)nc2cc(Oc3ccnc(-c4ncc(C(F)(F)F)[nH]4)c3)ccc21 + O=C1NC(=O)/C(=C/c2ccc(-c3ccc(F)cc3O)o2)S1 [AS252424] (first compound 0.08 µM, partner dose 1 µM) | 160 | 280 | 157 | 107 | 177 | 69.4 | 119 | 324 | 191 | 180 | 94.3 | 143 | 184 | 315 | 69.7 | 168 | 1310 | 314
15 | Nc1cccc2c1CN(C1CCC(=O)NC1=O)C2=O (centres undefined) [lenalidomide] + COc1ccc2c(c1)CCC1C2CCC2(C)C(NCCCCCCN3C(=O)C=CC3=O)CCC12 [U73122] (first compound 1 µM, partner dose 0.4 µM) | 41.4 | 99.7 | 41.3 | 102 | 88.1 | 40.5 | 82.6 | 76.8 | 215 | 75.2 | 62.7 | 149 | 62.8 | 107 | 71 | 211 | 153 | 80.4
